These are yes or no findings as the source states them, for the method shown. In cells and extracts the contact can be indirect. Some binding calls cover weakened binding; strength is not graded here. For some assays here: Where a sequence is shown, tags or fusion partners need not be part of it.

Assay [1] has as its target T1, Tripartite motif-containing 26 (TRIM26), endogenous (human (endogenous in 786-O and Caki-1)) (UniProt Q12899).
T1 sequence: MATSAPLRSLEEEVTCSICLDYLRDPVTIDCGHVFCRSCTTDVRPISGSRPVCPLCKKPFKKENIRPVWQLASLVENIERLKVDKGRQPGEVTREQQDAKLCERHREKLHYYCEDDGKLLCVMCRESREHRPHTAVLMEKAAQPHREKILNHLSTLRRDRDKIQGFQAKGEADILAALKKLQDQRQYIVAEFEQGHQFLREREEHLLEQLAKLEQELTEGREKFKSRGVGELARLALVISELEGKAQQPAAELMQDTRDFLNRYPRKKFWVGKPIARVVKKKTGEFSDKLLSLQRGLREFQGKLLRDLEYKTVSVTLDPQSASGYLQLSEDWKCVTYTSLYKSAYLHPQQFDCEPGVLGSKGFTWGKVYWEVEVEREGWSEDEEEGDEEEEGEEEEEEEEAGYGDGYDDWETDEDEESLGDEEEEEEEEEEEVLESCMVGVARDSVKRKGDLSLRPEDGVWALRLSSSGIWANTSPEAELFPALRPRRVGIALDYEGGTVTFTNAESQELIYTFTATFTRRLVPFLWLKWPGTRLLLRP
In words: co-IP; endogenous proteins in lysates of 786-O and Caki-1 cells; IP lysis buffer, specific antibodies or IgG overnight at 4 °C, protein A/G magnetic beads, western blot.

Assay [2] concerns the target T2, FLAG-TRIM26 (human) (UniProt Q12899).
T2 sequence: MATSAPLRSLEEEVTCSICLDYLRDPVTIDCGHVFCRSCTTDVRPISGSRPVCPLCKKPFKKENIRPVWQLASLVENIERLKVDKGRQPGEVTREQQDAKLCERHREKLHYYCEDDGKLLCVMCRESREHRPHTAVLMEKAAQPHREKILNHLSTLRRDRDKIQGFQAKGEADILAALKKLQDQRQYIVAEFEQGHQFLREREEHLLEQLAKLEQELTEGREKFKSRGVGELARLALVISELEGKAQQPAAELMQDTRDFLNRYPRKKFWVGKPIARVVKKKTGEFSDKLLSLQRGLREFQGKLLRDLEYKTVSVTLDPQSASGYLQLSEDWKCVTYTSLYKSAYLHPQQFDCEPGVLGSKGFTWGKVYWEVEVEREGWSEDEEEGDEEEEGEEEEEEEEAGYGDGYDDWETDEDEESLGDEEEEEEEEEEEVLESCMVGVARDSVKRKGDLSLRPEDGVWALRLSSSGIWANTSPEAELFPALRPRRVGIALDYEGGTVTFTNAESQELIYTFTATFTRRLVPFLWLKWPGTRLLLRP
As to the kind of experiment: co-IP; FLAG-TRIM26 and HA-ETK expressed in HEK 293T cells; immunoprecipitation with anti-FLAG or anti-HA antibodies, protein A/G magnetic beads, western blot.

B1: ETK, non-receptor tyrosine kinase (bone marrow tyrosine kinase, BMX), endogenous (protein, UniProt P51813 1-675)
chain: MDTKSILEELLLKRSQQKKKMSPNNYKERLFVLTKTNLSYYEYDKMKRGSRKGSIEIKKIRCVEKVNLEEQTPVERQYPFQIVYKDGLLYVYASNEESRSQWLKALQKEIRGNPHLLVKYHSGFFVDGKFLCCQQSCKAAPGCTLWEAYANLHTAVNEEKHRVPTFPDRVLKIPRAVPVLKMDAPSSSTTLAQYDNESKKNYGSQPPSSSTSLAQYDSNSKKIYGSQPNFNMQYIPREDFPDWWQVRKLKSSSSSEDVASSNQKERNVNHTTSKISWEFPESSSSEEEENLDDYDWFAGNISRSQSEQLLRQKGKEGAFMVRNSSQVGMYTVSLFSKAVNDKKGTVKHYHVHTNAENKLYLAENYCFDSIPKLIHYHQHNSAGMITRLRHPVSTKANKVPDSVSLGNGIWELKREEITLLKELGSGQFGVVQLGKWKGQYDVAVKMIKEGSMSEDEFFQEAQTMMKLSHPKLVKFYGVCSKEYPIYIVTEYISNGCLLNYLRSHGKGLEPSQLLEMCYDVCEGMAFLESHQFIHRDLAARNCLVDRDLCVKVSDFGMTRYVLDDQYVSSVGTKFPVKWSAPEVFHYFKYSSKSDVWAFGILMWEVFSLGKQPYDLYDNSQVVLKVSQGHRLYRPHLASDTIYQIMYSCWHELPEKRPTFQQLLSSIEPLREKDKH
Take B1: in assay [1], the binding entry was “binds”.

B2: HA-ETK (protein, UniProt P51813 1-675)
chain: MDTKSILEELLLKRSQQKKKMSPNNYKERLFVLTKTNLSYYEYDKMKRGSRKGSIEIKKIRCVEKVNLEEQTPVERQYPFQIVYKDGLLYVYASNEESRSQWLKALQKEIRGNPHLLVKYHSGFFVDGKFLCCQQSCKAAPGCTLWEAYANLHTAVNEEKHRVPTFPDRVLKIPRAVPVLKMDAPSSSTTLAQYDNESKKNYGSQPPSSSTSLAQYDSNSKKIYGSQPNFNMQYIPREDFPDWWQVRKLKSSSSSEDVASSNQKERNVNHTTSKISWEFPESSSSEEEENLDDYDWFAGNISRSQSEQLLRQKGKEGAFMVRNSSQVGMYTVSLFSKAVNDKKGTVKHYHVHTNAENKLYLAENYCFDSIPKLIHYHQHNSAGMITRLRHPVSTKANKVPDSVSLGNGIWELKREEITLLKELGSGQFGVVQLGKWKGQYDVAVKMIKEGSMSEDEFFQEAQTMMKLSHPKLVKFYGVCSKEYPIYIVTEYISNGCLLNYLRSHGKGLEPSQLLEMCYDVCEGMAFLESHQFIHRDLAARNCLVDRDLCVKVSDFGMTRYVLDDQYVSSVGTKFPVKWSAPEVFHYFKYSSKSDVWAFGILMWEVFSLGKQPYDLYDNSQVVLKVSQGHRLYRPHLASDTIYQIMYSCWHELPEKRPTFQQLLSSIEPLREKDKH
B2: the binding entry in assay [2] was “binds”.
